Some entries share one result that the patent states for a list of compounds.
Target: T1, human JAK1 kinase domain (Homo sapiens, UniProt P23458)
T1 construct: made in house; host or cells: SF9 insect cells (baculovirus)
Assay: JAK1 inhibition assay (Example B), Caliper LabChip peptide phosphorylation
Assay type: biochemical
Conditions: 1.5 nM JAK1, 25 μM ATP, Morrison tight binding model; read-out: Ki in a JAK1 kinase activity assay (Example B)

Protein sequences, listed by entry. Tags and fused reporters are not part of them. Residues count along the entry.
UniProt P23458, 852-1154: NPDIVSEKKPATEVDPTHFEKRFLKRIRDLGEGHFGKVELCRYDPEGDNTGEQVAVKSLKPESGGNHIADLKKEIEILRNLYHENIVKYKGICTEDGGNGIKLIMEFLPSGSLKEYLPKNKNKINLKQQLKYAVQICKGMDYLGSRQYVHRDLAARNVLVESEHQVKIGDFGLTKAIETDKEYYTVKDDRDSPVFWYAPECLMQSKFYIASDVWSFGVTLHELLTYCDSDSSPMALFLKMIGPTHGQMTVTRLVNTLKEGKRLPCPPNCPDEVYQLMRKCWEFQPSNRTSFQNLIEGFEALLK

| SMILES | Ki [nM] |
| --- | --- |
| C[C@@H](O)c1nc2cnc3[nH]ccc3c2n1[C@H]1CC[C@@H](N2CCC(C#N)CC2)CC1 (relative stereo) [Example 611, Cis 1-{4-[2-(1-hydroxy-ethyl)-6H-1,2,3,5,6-tetraaza-as-indacen-1-yl]-cyclohexyl}-piperidine-4-carbonitrile] | < 500 |
| Cc1nc2cnc3[nH]ccc3c2n1[C@@H]1C[C@@H]2CC[C@H]1O2 (relative stereo) [Example 684, Endo-2-Methyl-1-(7-oxa-bicyclo[2.2.1]hept-2-yl)-1,6-dihydro-1,2,3,5,6-tetraaza-as-indacene] | < 500 |
| c1cc2c(ncc3ncn(C4CCCCNC4)c32)[nH]1 (single isomer, unassigned) [Example 110, 1-Azepan-3-yl-1,6-dihydro-1,2,3,5,6-tetraaza-as-indacene] | < 500 |
| Cc1nc2cnc3[nH]ccc3c2n1C1CCC2CC(=O)NC2C1 (single isomer, unassigned) [Example 112, 6-(2-Methyl-6H-1,2,3,5,6-tetraaza-as-indacen-1-yl)-octahydro-indol-2-one] | < 500 |
| CCC(COC)n1c(C(C)O)nc2cnc3[nH]ccc3c21 (single isomer, unassigned) [Example 182, 1-[1-(1-Methoxymethyl-propyl)-1,6-dihydro-1,2,3,5,6-tetraaza-as-indacen-2-yl]-ethanol] | < 500 |
| CN1CCOCC1C(=O)N1CCC(n2cnc3cnc4[nH]ccc4c32)CC1 (single isomer, unassigned) [Example 197, (4-Methyl-morpholin-3-yl)-[4-(6H-1,2,3,5,6-tetraaza-as-indacen-1-yl)-piperidin-1-yl]-methanone] | < 500 |
| NC1CCCC(n2cnc3cnc4[nH]ccc4c32)C1 (single isomer, unassigned) [Example 365, 3-(6H-1,3,5,6-Tetraaza-as-indacen-1-yl)-cyclohexylamine] | < 500 |
| NC1CCCC(n2cnc3cnc4[nH]ccc4c32)C1 (single isomer, unassigned) [Example 366, 3-(6H-1,3,5,6-Tetraaza-as-indacen-1-yl)-cyclohexylamine] | < 500 |
| NC1CCCC(n2cnc3cnc4[nH]ccc4c32)C1 (single isomer, unassigned) [Example 367, 3-(6H-1,3,5,6-Tetraaza-as-indacen-1-yl)-cyclohexylamine] | < 500 |
| NC1CCCC(n2cnc3cnc4[nH]ccc4c32)C1 (single isomer, unassigned) [Example 368, 3-(6H-1,3,5,6-Tetraaza-as-indacen-1-yl)-cyclohexylamine] | < 500 |
| CC(C1CCCO1)n1cnc2cnc3[nH]ccc3c21 (single isomer, unassigned) [Example 417, 1-[1-(Tetrahydro-furan-2-yl)-ethyl]-1,6-dihydro-1,3,5,6-tetraaza-as-indacene] | < 500 |
| CC(C1CCCO1)n1cnc2cnc3[nH]ccc3c21 (single isomer, unassigned) [Example 418, 1-[1-(Tetrahydro-furan-2-yl)-ethyl]-1,6-dihydro-1,3,5,6-tetraaza-as-indacene] | < 500 |
| Cc1nc2cnc3[nH]ccc3c2n1C(C)C1CCCO1 (single isomer, unassigned) [Example 426, 2-Methyl-1-[1-(tetrahydro-furan-2-yl)-ethyl]-1,6-dihydro-1,3,5,6-tetraaza-as-indacene] | < 500 |
| Cc1nc2cnc3[nH]ccc3c2n1C(C)C1CCCO1 (single isomer, unassigned) [Example 427, 2-Methyl-1-[1-(tetrahydro-furan-2-yl)-ethyl]-1,6-dihydro-1,3,5,6-tetraaza-as-indacene] | < 500 |
| CN1CCCC(C(=O)N2CCC(n3cnc4cnc5[nH]ccc5c43)CC2)C1 (single isomer, unassigned) [Example 453, (1-Methyl-piperidin-3-yl)-[4-(6H-1,3,5,6-tetraaza-as-indacen-1-yl)-piperidin-1-yl]-methanone] | < 500 |
| CN1CCCC(C(=O)N2CCC(n3cnc4cnc5[nH]ccc5c43)CC2)C1 (single isomer, unassigned) [Example 454, (1-Methyl-piperidin-3-yl)-[4-(6H-1,3,5,6-tetraaza-as-indacen-1-yl)-piperidin-1-yl]-methanone] | < 500 |
| c1cc2c(ncc3nnn(C4CCCOC4)c32)[nH]1 (single isomer, unassigned) [Example 459, 1-(Tetrahydro-pyran-3-yl)-1,6-dihydro-1,2,3,5,6-pentaaza-as-indacene] | < 500 |
| c1cc2c(ncc3nnn(C4CCCOC4)c32)[nH]1 (single isomer, unassigned) [Example 460, 1-(Tetrahydro-pyran-3-yl)-1,6-dihydro-1,2,3,5,6-pentaaza-as-indacene] | < 500 |
| OCc1nc2cnc3[nH]ccc3c2n1C1CCCOC1 (single isomer, unassigned) [Example 463, [1-(Tetrahydro-pyran-3-yl)-1,6-dihydro-1,3,5,6-tetraaza-as-indacen-2-yl]-methanol] | < 500 |
| OCc1nc2cnc3[nH]ccc3c2n1C1CCCOC1 (single isomer, unassigned) [Example 464, [1-(Tetrahydro-pyran-3-yl)-1,6-dihydro-1,3,5,6-tetraaza-as-indacen-2-yl]-methanol] | < 500 |

| SMILES | Ki [nM] |
| --- | --- |
| c1cc2c(ncc3ncn(C4CCCOC4)c32)[nH]1 (single isomer, unassigned) [Example 465, 1-(Tetrahydro-pyran-3-yl)-1,6-dihydro-1,3,5,6-tetraaza-as-indacene] | < 500 |
| c1cc2c(ncc3ncn(C4CCCOC4)c32)[nH]1 (single isomer, unassigned) [Example 466, 1-(Tetrahydro-pyran-3-yl)-1,6-dihydro-1,3,5,6-tetraaza-as-indacene] | < 500 |
| CC(C)(C)OC(=O)NC1CCCC(n2cnc3cnc4[nH]ccc4c32)C1 (single isomer, unassigned) [Example 474, [3-(6H-1,3,5,6-Tetraaza-as-indacen-1-yl)-cyclohexyl]-carbamic acid tert-butyl ester] | < 500 |
| CC(C)(C)OC(=O)NC1CCCC(n2cnc3cnc4[nH]ccc4c32)C1 (single isomer, unassigned) [Example 475, [3-(6H-1,3,5,6-Tetraaza-as-indacen-1-yl)-cyclohexyl]-carbamic acid tert-butyl ester] | < 500 |
| CC(C)(C)OC(=O)NC1CCCC(n2cnc3cnc4[nH]ccc4c32)C1 (single isomer, unassigned) [Example 476, [3-(6H-1,3,5,6-Tetraaza-as-indacen-1-yl)-cyclohexyl]-carbamic acid tert-butyl ester] | < 500 |
| CC(C)(C)OC(=O)NC1CCCC(n2cnc3cnc4[nH]ccc4c32)C1 (single isomer, unassigned) [Example 477, [3-(6H-1,3,5,6-Tetraaza-as-indacen-1-yl)-cyclohexyl]-carbamic acid tert-butyl ester] | < 500 |
| CC(=O)NC1CCCC(n2cnc3cnc4[nH]ccc4c32)C1 (single isomer, unassigned) [Example 478, N-[3-(6H-1,3,5,6-Tetraaza-as-indacen-1-yl)-cyclohexyl]-acetamide] | < 500 |
| CC(=O)NC1CCCC(n2cnc3cnc4[nH]ccc4c32)C1 (single isomer, unassigned) [Example 479, N-[3-(6H-1,3,5,6-Tetraaza-as-indacen-1-yl)-cyclohexyl]-acetamide] | < 500 |
| COCC(=O)NC1CCCC(n2cnc3cnc4[nH]ccc4c32)C1 (single isomer, unassigned) [Example 480, 2-Methoxy-N-[3-(6H-1,3,5,6-tetraaza-as-indacen-1-yl)-cyclohexyl]-acetamide] | < 500 |
| COCC(=O)NC1CCCC(n2cnc3cnc4[nH]ccc4c32)C1 (single isomer, unassigned) [Example 481, 2-Methoxy-N-[3-(6H-1,3,5,6-tetraaza-as-indacen-1-yl)-cyclohexyl]-acetamide] | < 500 |
| COCC(=O)NC1CCCC(n2cnc3cnc4[nH]ccc4c32)C1 (single isomer, unassigned) [Example 482, 2-Methoxy-N-[3-(6H-1,3,5,6-tetraaza-as-indacen-1-yl)-cyclohexyl]-acetamide] | < 500 |
| COCC(=O)NC1CCCC(n2cnc3cnc4[nH]ccc4c32)C1 (single isomer, unassigned) [Example 483, 2-Methoxy-N-[3-(6H-1,3,5,6-tetraaza-as-indacen-1-yl)-cyclohexyl]-acetamide] | < 500 |
| OC1CCCC(n2nnc3cnc4[nH]ccc4c32)C1 (single isomer, unassigned) [Example 551, 3-(6H-1,2,3,5,6-Pentaaza-as-indacen-1-yl)-cyclohexanol] | < 500 |
| OC1CCCC(n2nnc3cnc4[nH]ccc4c32)C1 (single isomer, unassigned) [Example 552, 3-(6H-1,2,3,5,6-Pentaaza-as-indacen-1-yl)-cyclohexanol] | < 500 |
| OC1CCCC(n2nnc3cnc4[nH]ccc4c32)C1 (single isomer, unassigned) [Example 553, 3-(6H-1,2,3,5,6-Pentaaza-as-indacen-1-yl)-cyclohexanol] | < 500 |
| OC1CCCC(n2nnc3cnc4[nH]ccc4c32)C1 (single isomer, unassigned) [Example 554, 3-(6H-1,2,3,5,6-Pentaaza-as-indacen-1-yl)-cyclohexanol] | < 500 |
| OC1CCCC(n2cnc3cnc4[nH]ccc4c32)C1 (single isomer, unassigned) [Example 559, 3-(6H-1,3,5,6-Tetraaza-as-indacen-1-yl)-cyclohexanol] | < 500 |
| OC1CCCC(n2cnc3cnc4[nH]ccc4c32)C1 (single isomer, unassigned) [Example 560, 3-(6H-1,3,5,6-Tetraaza-as-indacen-1-yl)-cyclohexanol] | < 500 |
| OC1CCCC(n2cnc3cnc4[nH]ccc4c32)C1 (single isomer, unassigned) [Example 561, 3-(6H-1,3,5,6-Tetraaza-as-indacen-1-yl)-cyclohexanol] | < 500 |
| OC1CCCC(n2cnc3cnc4[nH]ccc4c32)C1 (single isomer, unassigned) [Example 562, 3-(6H-1,3,5,6-Tetraaza-as-indacen-1-yl)-cyclohexanol] | < 500 |
